# Assay results published in PubChem BioAssay AID504467 (National Center for Advancing Translational Sciences (NCATS), 2011).
# In all, about 330,000 compounds went through this assay and about 7,700 (2.3%) were called active. This list was built around the results that the source calls inconclusive (neither active nor inactive); the mix of calls is not that of the screen. The call rests on the fitted dose curve; in most records, active means well fitted inhibition curve with a large enough effect; inconclusive means small, poorly fitted or top-dose-only effect, or effect the other way; inactive means flat fitted curve, though single readings scatter. Where the call is inconclusive, the potency comes from a doubtful curve fit.
# Assay: qHTS screen for small molecules that inhibit ELG1-dependent DNA repair in human embryonic kidney (HEK293T) cells expressing luciferase-tagged ELG1; further: nearly all actives have a fitted effect of over 55% in size
# Conditions: HEK293T ELG1-luciferase reporter, luminescence, 16 h, DNA damage induced by 5-fluorouridine; activity change, negative = inhibition: at 46.1 µM (top of the series)
# Summary of the method: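 Reporter activity after DNA damage by 5-fluorouridine is monitored. Compound-treated cells incubate 16 hr at 37 °C, then ONE-Glo is added for 30 min before luminescence reading.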
# On the % scale 0 is the no-effect control and ±100 the full control effect; potency means the concentration at half of the fitted maximal effect.
SMILES,"activity change, negative = inhibition",Potency
CCOC(=O)C(C(=O)Nc1cccc(C)n1)C1CCCCC1 (stereo not given),inactive: -13%,
CN(CC1CCCO1)S(=O)(=O)c1ccc(C(=O)Nc2ccc([N+](=O)[O-])cc2)cc1 (stereo not given),,active: 1.83 µM
CC(C)Nc1nc(-c2ccccn2)nc(-c2ccccc2)c1C#N,,"inconclusive: 5.17 µM [inhibitor, full curve]"
COc1ccc(NC(=O)CCc2nc3ccccc3c(=O)[nH]2)cc1S(=O)(=O)N1CCCCC1,,active: 25.9 µM
Cc1ccc2nc(SCC(=O)c3c(N)n(C)c(=O)n(C)c3=O)[nH]c2c1,inactive: 7.35%,
COc1ccccc1NS(=O)(=O)c1ccc(NN=C2CCCCC2)c([N+](=O)[O-])c1,inactive: 20%,
CC(C)(C)OC(=O)N/N=C/c1cn(-c2ccccc2)nc1-c1cccnc1,,"inconclusive: 16.4 µM [inhibitor, single point]"
COc1ccc(S(=O)(=O)N2CCCC2c2cccs2)cc1 (stereo not given),inactive: -14.2%,
CCc1c(C(=O)NNC(=S)NCc2ccccc2)csc1C,,"inconclusive: 2.31 µM [inhibitor, partial curve, poor fit]"
COC(=O)c1ccc(Cn2cnc3c(sc4nc(N5CCOCC5)c5c(c43)CCCC5)c2=O)o1,,"inconclusive: 14.6 µM [inhibitor, partial curve, poor fit]"
COc1ccc(SC[C@H](CC(C)C)N2CCN(C)CCC2=O)cc1,,"inconclusive: 23.1 µM [activator, partial curve]"
O=C(NCC(c1cccs1)N1CCOCC1)c1ccccc1NS(=O)(=O)c1ccc(Cl)cc1 (stereo not given),,"inconclusive: 29.1 µM [inhibitor, single point]"
COc1ccc(OC2CCN(C(=O)Nc3ccc(C)cc3)CC2)cc1,inactive: -9.9%,
COC(=O)c1c(NC(=O)c2ccc(C)o2)sc2c1CCCCC2,,"inconclusive: 6.51 µM [activator, partial curve]"
O=C(CNC(=O)c1cc(Cl)cc([N+](=O)[O-])c1)OCC(=O)N1CCCCC1,inactive: 16.1%,
CCC/C(O)=C1\C(=O)CCCC1=NCCc1c(C)[nH]c2ccc(OC)cc12,,"inconclusive: 29.1 µM [inhibitor, single point]"
COC(=O)C1=C(C)n2nnnc2NC1c1ccc(Cl)cc1 (stereo not given),inactive: -8.79%,
O=C(Cc1ccc([N+](=O)[O-])cc1)c1ccc(O)cc1O,,"inconclusive: 0.651 µM [activator, partial curve, poor fit]"
COc1cccc(CC(=O)Nc2ncc(C)s2)c1,,"inconclusive: 4.61 µM [inhibitor, single point]"
Cc1ccc(/C(O)=C2/C(=O)C(=O)N(c3ccccn3)C2c2cccc([N+](=O)[O-])c2)cc1 (stereo not given),inactive: 0.709%,
Cc1cc(C)n(-c2nc3ccccc3nc2N2CCN(S(=O)(=O)c3ccc4ccccc4c3)CC2)n1,inactive: -0.386%,
CC(=O)c1c(C)[nH]c(C(=O)OCC(=O)N2CCN(S(=O)(=O)c3ccc(C)cc3C)CC2)c1C,,active: 18.4 µM
Cc1cccc2nc(COc3ccc4ccccc4c3Br)cn12,,"inconclusive: 7.3 µM [activator, partial curve]"
FC(F)(F)c1cc(-c2ccco2)nc(N2CCN(c3ccccc3)CC2)n1,,"inconclusive: 20.6 µM [inhibitor, partial curve, poor fit]"

SMILES,"activity change, negative = inhibition",Potency
C=CCN(c1ccc(C(=O)Nc2ccc(C)cc2)cc1)S(C)(=O)=O,,"inconclusive: 23.1 µM [inhibitor, partial curve]"
CC1Cn2c(nnc2-c2cc3ccccc3cc2O)S1 (stereo not given),,"inconclusive: 6.51 µM [inhibitor, full curve]"
COc1ccc(Cc2nnc(SCc3c(C)noc3C)n2C2CCCCC2)cc1OC,,"inconclusive: 16.4 µM [activator, single point]"
CCC1=NN(C(=O)c2ccc(Cl)cc2)C(O)(c2ccc(C)cc2)C1 (stereo not given),inactive: -29%,
CCOc1ccc2oc(C(=O)N(C)CCc3ccc(OC)c(OC)c3)c(C)c2c1,,active: 18.3 µM
O=C(O)/C=C/C(=O)NNC(=O)c1ccc(Br)cc1,,"inconclusive: 18.4 µM [activator, single point]"
CN(CCC#N)C(=O)COC(=O)/C=C/c1ccc2c(c1)OCO2,inactive: 0.161%,
CCCCCCSc1cccc(-c2nc3ccc(C)cn3c2NC2CCCCC2)c1,inactive: -12.6%,
Cc1cc(NC(=O)Nc2ccc(Cl)cc2)no1,,"inconclusive: 5.01 µM [activator, full curve, poor fit]"
CC(C)(C)c1ccc(C(=O)Nc2cccc(C(=O)N3CCOCC3)c2)cc1,,"inconclusive: 2.31 µM [activator, partial curve]"
Cc1c(NS(=O)(=O)c2ccccc2F)c(=O)n(-c2ccccc2)n1C,,"inconclusive: 6.51 µM [activator, partial curve, poor fit]"
Cc1cccc(CN2CCC(C(=O)Nc3cccc(-c4cccc(F)c4)c3)CC2)n1,,"inconclusive: 29.1 µM [inhibitor, single point]"
N#Cc1c(NCCN)nc(NCc2ccccc2)c2c1CCN(Cc1ccccc1)C2,,active: 13 µM
Cc1ccc(C2(C)NC(=O)N(Cc3c(C)noc3C)C2=O)cc1 (stereo not given),,"inconclusive: 20.6 µM [activator, single point]"
COc1cccc2c1CCc1c-2nc2ccccc2c1C(=O)O,,"inconclusive: 2.91 µM [activator, single point]"
COc1ccc(CNC(=O)/C(C#N)=C2\N=C(NC(=O)c3cccs3)c3ccccc32)cc1,inactive: -9.74%,
CCc1ccc(NC(=O)c2onc(C)c2Cl)cc1,,"inconclusive: 3.66 µM [activator, partial curve]"
CC(C)(C)c1ccc(OC(=O)c2ccc3nsnc3c2)cc1,inactive: 4.15%,
Cc1cc(C)n2nc(SCc3ncc(-c4ccccc4)o3)nc2n1,,"inconclusive: 29.1 µM [inhibitor, single point]"
Nn1c(SCC(=O)Nc2ccccc2F)nnc1C1CCCCC1,inactive: 21%,
O=C(COC(=O)Cc1cccs1)NCc1ccc(F)cc1,inactive: 24%,
CSc1ccc(/C=N/Nc2ccc(Cl)c(C(=O)O)c2)cc1,,"inconclusive: 0.461 µM [activator, full curve]"
CCN(CC)C(=O)[C@H]1CC(CC(=O)NCCN2CCOCC2)C(=O)N2CCc3c([nH]c4ccc(OC)cc34)[C@]12C (stereo not given in full),,"inconclusive: 29.1 µM [activator, single point]"
Cc1csc(Nc2nc(N)c(C(=O)Nc3ccccc3)o2)n1,,"inconclusive: 20.6 µM [activator, partial curve]"

SMILES,"activity change, negative = inhibition",Potency
Cc1cc(=O)[nH]c(SCCCOc2ccccc2Cl)n1,inactive: 3.48%,
CCC(C)C(NC(=O)c1ccccc1)C(=O)Nc1ccc(S(=O)(=O)Nc2cc(C)nc(C)n2)cc1 (stereo not given),inactive: 17%,
CCc1cc2c(=O)n(-c3ccc(C)cc3)cnc2s1,,"inconclusive: 2.59 µM [activator, full curve]"
COc1cc(OC)cc(-c2cc3nc(C)cc(N4CCN(C(=O)c5ccco5)CC4)n3n2)c1,,"inconclusive: 7.31 µM [inhibitor, partial curve]"
CN(C(=S)NC(=O)c1ccc(Br)o1)c1ccccc1,,"inconclusive: 29.1 µM [activator, partial curve, poor fit]"
COC(=O)CCCCCN1C(=O)NC(c2ccc(-c3ccccc3)cc2)C(C(=O)OCc2ccccc2)=C1C (stereo not given),,"inconclusive: 25.9 µM [inhibitor, partial curve, poor fit]"
CC1=C(C(=O)OCc2ccc3c(c2)OCO3)C(c2ccccc2OCc2ccccc2)NC(=O)N1 (stereo not given),,active: 16.4 µM
CCC(Cc1ccccc1)NC(=O)c1ccc2nc(N3CCOCC3)sc2c1 (stereo not given),,"inconclusive: 29.1 µM [inhibitor, single point]"
CC1=C(C(=O)NC2CCCc3c2cnn3-c2cccc(C)c2C)OCCO1 (stereo not given),,"inconclusive: 2.06 µM [inhibitor, partial curve]"
COCCNC(=O)c1cccc(OC2CCN(Cc3ccc(F)cc3OC)CC2)c1,,"inconclusive: 0.146 µM [inhibitor, single point]"
CCOC(=O)C1=C(C)N=C2SC(CC)C(=O)N2C1c1cccc(F)c1 (stereo not given),,"inconclusive: 20.6 µM [inhibitor, single point]"
Cc1nnc(SCc2nnc(-c3cccs3)o2)n1C,,"inconclusive: 0.58 µM [inhibitor, full curve]"
Cc1ccc(OCC(=O)N/N=C/C=C/c2ccco2)c(Br)c1,inactive: 0.101%,
Nc1ccc(C(=O)N2N=C(c3ccccc3)CC2(O)C(F)(F)F)cc1 (stereo not given),inactive: -0.57%,
CC(=O)c1cccc(NC(=O)CNC(=O)c2cc3ccccc3o2)c1,,"inconclusive: 20.6 µM [activator, single point]"
CCC(=O)c1ccc(N2CCN(C(=O)c3ccccc3F)CC2)c(F)c1,,"inconclusive: 0.259 µM [inhibitor, single point]"
CCOC(=O)N1CCC(n2c(SCC(=O)N3CCC(C)CC3)nc3ccccc3c2=O)CC1,,"inconclusive: 29.1 µM [inhibitor, single point]"
Oc1ccc(-c2cnns2)c(O)c1,,"inconclusive: 9.2 µM [inhibitor, partial curve]"
COc1cc(/C=N/NC(=O)C(C)Nc2n[nH]c(=O)[nH]c2=O)ccc1O (stereo not given),,"inconclusive: 1.16 µM [inhibitor, single point]"
CN(c1ccc(C(=O)NCCSCc2ccc(Cl)cc2)cc1)S(=O)(=O)c1ccccc1,,"inconclusive: 36.6 µM [inhibitor, partial curve, poor fit]"
CC(=O)Nc1ccc(NC(=O)C(=O)NCC(c2ccco2)N2CCc3ccccc32)cc1 (stereo not given),,"inconclusive: 29.1 µM [inhibitor, single point]"
COC(=O)c1ccc(NC(=O)N2CCCC(C(=O)c3ccccc3OC)C2)cc1 (stereo not given),,"inconclusive: 20.6 µM [inhibitor, single point]"

# 4 compounds picked at random from those above:
SMILES,"activity change, negative = inhibition",Potency
CCOC(=O)N1CCC(n2c(SCC(=O)N3CCC(C)CC3)nc3ccccc3c2=O)CC1,,"inconclusive: 29.1 µM [inhibitor, single point]"
CC(=O)c1cccc(NC(=O)CNC(=O)c2cc3ccccc3o2)c1,,"inconclusive: 20.6 µM [activator, single point]"
COCCNC(=O)c1cccc(OC2CCN(Cc3ccc(F)cc3OC)CC2)c1,,"inconclusive: 0.146 µM [inhibitor, single point]"
CCC(C)C(NC(=O)c1ccccc1)C(=O)Nc1ccc(S(=O)(=O)Nc2cc(C)nc(C)n2)cc1 (stereo not given),inactive: 17%,
